From patent publication US11225470B2, “Tetrazolinone compounds and its use as pest control agents” (SUMITOMO CHEMICAL COMPANY, LIMITED, priority 2016, dated 2022)
Some results were stated once for a whole list of compounds, not compound by compound.

Assays:
Format in all cases: in vivo
[1] = system: soybean rust fungi (Phakopsora pachyrhizi); experiment: soybean rust test, spraying before inoculation; details: 200 ppm foliar spray, inoculation after 4 days; soybean cv Kurosengoku
[2] = system: barley scald fungi (Rhynchosporium secalis); experiment: barley scald test; details: inoculation after 2 days, barley cv NISHINOHOSHI
[3] = system: wheat leaf blotch fungi (Septoria tritici); experiment: wheat leaf blotch test, spraying before inoculation; details: inoculation after 4 days
[4] = system: wheat leaf blotch fungi (Septoria tritici); experiment: wheat leaf blotch test, spraying after inoculation; details: 200 ppm foliar spray 3 days after inoculation; wheat cv APOGEE
[5] = system: barley net blotch fungi (Pyrenophora teres); experiment: barley net blotch test; details: 200 ppm foliar spray, inoculation after 2 days; barley cv MIKAMO GOLDEN
[6] = system: wheat brown rust fungi (Puccinia recondita); experiment: wheat brown rust test; details: inoculation after 5 days, wheat cv SHIROGANE
[7] = system: kidney bean sclerotinia rot fungi (Sclerotinia sclerotiorum); experiment: kidney bean sclerotinia rot test; details: kidney bean cv NAGAUZURA SAITO, observed after four days
[8] = system: soybean frogeye leaf spot disease fungi (Cercospora sojina); experiment: soybean frogeye leaf spot test, spraying after inoculation; details: 200 ppm foliar spray 5 days after inoculation; soybean cv TACHINAGAHA
[9] = system: cucumber downy mildew fungi (Pseudoperonospora cubensis); experiment: cucumber downy mildew test; details: inoculation after 1 day, cucumber cv SAGAMIHANJIRO
[10] = system: soybean rust fungi (Phakopsora pachyrhizi); experiment: soybean rust test, spraying after inoculation; details: 200 ppm foliar spray 3 days after inoculation; soybean cv Kurosengoku; observed 8 days after spraying
[11] = system: cucumber anthracnose fungi (Colletotrichum lagenarium); experiment: cucumber anthracnose test; details: 200 ppm foliar spray, inoculation after 1 day; cucumber cv SAGAMIHANJIRO
[12] = system: soybean frogeye leaf spot disease fungi (Cercospora sojina); experiment: soybean frogeye leaf spot test, spraying before inoculation; details: 200 ppm foliar spray, inoculation after 2 days; soybean cv TACHINAGAHA
[13] = system: kidney bean sclerotinia rot fungi (Sclerotinia sclerotiorum); experiment: kidney bean sclerotinia rot test, plants placed outside for 6 days before inoculation; details: 200 ppm foliar spray, observed after six days
Excerpt: Each of plastic pots was filled with soil and kidney bean (cultivar: NAGAUZURA SAITO) was sown and grown in a greenhouse for 8 days. Then, the comparative test compound cf5, the present compound E-1, E-3, E-11, or E-16, each of which was made to a formulation according to the similar method to that of Formulation Example 6, was mixed with water so as to be 200 ppm. The mixtures were sprayed to foliar parts so as to adhere adequately on the leaves of the above-mentioned kidney bean. After spraying the mixtures, the kidney beans were air-dried, and placed outside for 6 days. Thereafter, a PDA medium containing hyphae of kidney bean sclerotinia rot fungi (Sclerotinia sclerotiorum) was placed on the leaves of the kidney bean. After the inoculation, all kidney beans were placed indoors under a high humidity during only night and after six days, a lesion area was observed.

[14] = system: soybean powdery mildew fungi (Erysiphe diffusa); experiment: soybean powdery mildew test, spraying after inoculation; details: 200 ppm foliar spray 2 days after inoculation; soybean cv KUROSENGOKU
[15] = 200 ppm foliar spray, wheat cv APOGEE
[16] = 500 ppm foliar spray, wheat cv Apogee

Compound	lesion area compared to the lesion area in an untreated soybean [1] [%]	lesion area compared to the lesion area in an untreated barley ([2]; 200 ppm foliar spray) [%]	lesion area compared to the lesion area in an untreated barley ([2]; 500 ppm foliar spray) [%]	lesion area compared to the lesion area in an untreated wheat [3, 15] [%]	lesion area compared to the lesion area in an untreated wheat [3, 16] [%]	lesion area compared to the lesion area in an untreated wheat [4] [%]	lesion area compared to the lesion area in an untreated barley [5] [%]	lesion area compared to the lesion area in an untreated wheat ([6]; 200 ppm foliar spray) [%]	lesion area compared to the lesion area in an untreated kidney bean ([7]; 500 ppm foliar spray) [%]	lesion area compared to the lesion area in an untreated soybean [8] [%]	lesion area compared to the lesion area in an untreated cucumber ([9]; 200 ppm foliar spray) [%]	lesion area compared to the lesion area in an untreated soybean [10] [%]	lesion area compared to the lesion area in an untreated cucumber [11] [%]	lesion area compared to the lesion area in an untreated cucumber ([9]; 50 ppm foliar spray) [%]	lesion area compared to the lesion area in an untreated wheat ([6]; 500 ppm foliar spray) [%]	lesion area compared to the lesion area in an untreated kidney bean ([7]; 200 ppm foliar spray) [%]	lesion area compared to the lesion area in an untreated soybean [12] [%]	lesion area compared to the lesion area in an untreated kidney bean [13] [%]	lesion area compared to the lesion area in an untreated soybean [14] [%]
CCC(=NN=C(C)C(C)=NOC)OCc1c(C)cccc1-n1nnn(C)c1=O [1-10]	≤ 30	≤ 30	≤ 30	≤ 30	≤ 30	≤ 30	≤ 30	≤ 30	≤ 30	≤ 30	≤ 30	≤ 30							
CCc1ccc(N=C(SC)SCc2c(C)cccc2-n2nnn(C)c2=O)cc1 [3-8]	≤ 30	≤ 30		≤ 30			≤ 30	≤ 30					≤ 30						
CSC(=Nc1cccc(C(F)(F)F)c1)SCc1c(C)cccc1-n1nnn(C)c1=O [4-1]				≤ 30	≤ 30	≤ 30	≤ 30				≤ 30		≤ 30	≤ 30					
COc1ccc(N=C(SC)SCc2c(C)cccc2-n2nnn(C)c2=O)cc1 [4-5]		≤ 30		≤ 30	≤ 30	≤ 30	≤ 30						≤ 30						
Cc1cccc(-n2nnn(C)c2=O)c1C=NOC(C)c1cccc(C(F)(F)F)c1 (centres unmarked) [6-2]		≤ 30			≤ 30				≤ 30		≤ 30		≤ 30						
CCON=C(C)C(C)=NN=C(CC)OCc1c(C)cccc1-n1nnn(C)c1=O [A-2]	≤ 30	≤ 30		≤ 30	≤ 30	≤ 30	≤ 30	≤ 30	≤ 30	≤ 30		≤ 30		≤ 30	≤ 30	≤ 30			
CCC(=NN=C(C)C(C)=NOC(C)C)OCc1c(C)cccc1-n1nnn(C)c1=O [A-3]	≤ 30	≤ 30	≤ 30	≤ 30	≤ 30	≤ 30	≤ 30	≤ 30	≤ 30	≤ 30		≤ 30			≤ 30	≤ 30			
C=CCON=C(C)C(C)=NN=C(CC)OCc1c(C)cccc1-n1nnn(C)c1=O [C-2]	≤ 30	≤ 30	≤ 30	≤ 30	≤ 30	≤ 30	≤ 30	≤ 30	≤ 30	≤ 30		≤ 30			≤ 30	≤ 30			
CCC(=NN=C(C)C(C)=NOCC1CC1)OCc1c(C)cccc1-n1nnn(C)c1=O [C-4]	≤ 30	≤ 30	≤ 30	≤ 30	≤ 30	≤ 30	≤ 30	≤ 30	≤ 30	≤ 30		≤ 30			≤ 30				
CCC(=NN=C(C)C(C)=NOCC#N)OCc1c(C)cccc1-n1nnn(C)c1=O [C-13]	≤ 30		≤ 30	≤ 30	≤ 30	≤ 30	≤ 30	≤ 30		≤ 30	≤ 30	≤ 30		≤ 30	≤ 30				
CCC(=NN=C(C)c1ccc2c(c1)CCO2)OCc1c(C)cccc1-n1nnn(C)c1=O [D-2]	≤ 30	≤ 30	≤ 30	≤ 30	≤ 30	≤ 30	≤ 30	≤ 30	≤ 30	≤ 30		≤ 30		≤ 30	≤ 30				
CCC(=NN=C1CCOc2ccccc21)OCc1c(C)cccc1-n1nnn(C)c1=O [E-11]	≤ 30		≤ 30	≤ 30	≤ 30	≤ 30		≤ 30	≤ 30		≤ 30				≤ 30	≤ 30	≤ 30	≤ 10	≤ 30
